This experiment deals with annexin A2 from macrophages (human (endogenous in monocyte-derived macrophages)) (UniProt P07355). The experiment in a line: single molecule pulldown (SiMPull); macrophage lysates flowed onto slides coated with an anti-A2 capture antibody; complexes detected with mouse anti-S100A10 or anti-SLPI antibodies and 568-conjugated secondary antibody, TIRF microscopy.

Sequences of proteins named here, by UniProt entry; tags and fusion partners are left off. Residues count along the entry.
UniProt P07355: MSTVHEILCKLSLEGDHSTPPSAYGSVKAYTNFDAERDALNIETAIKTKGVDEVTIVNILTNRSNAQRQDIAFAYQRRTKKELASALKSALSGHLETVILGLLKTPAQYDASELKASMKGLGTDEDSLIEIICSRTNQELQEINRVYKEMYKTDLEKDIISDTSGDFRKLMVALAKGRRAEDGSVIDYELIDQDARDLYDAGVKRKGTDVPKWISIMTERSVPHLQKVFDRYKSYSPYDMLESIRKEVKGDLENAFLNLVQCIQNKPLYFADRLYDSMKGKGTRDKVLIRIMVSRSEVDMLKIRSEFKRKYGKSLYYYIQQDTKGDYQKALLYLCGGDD
UniProt P03973, residues 26-132: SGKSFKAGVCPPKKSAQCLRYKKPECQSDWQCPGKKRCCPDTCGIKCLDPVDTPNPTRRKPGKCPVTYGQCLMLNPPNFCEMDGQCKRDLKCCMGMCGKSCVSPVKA
UniProt P60903: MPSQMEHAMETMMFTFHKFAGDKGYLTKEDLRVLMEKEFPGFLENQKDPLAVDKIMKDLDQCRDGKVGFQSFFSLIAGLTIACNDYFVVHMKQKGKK

Results are given in words; binding and its absence hold for the method and conditions named. Some binding calls cover weakened binding; strength is not graded here.

For the substance “secretory leukocyte protease inhibitor from macrophage lysate (from UniProt P03973 26-132)”, the binding result was “binds”.

As for “S100A10 from macrophage lysate (from UniProt P60903 1-97)”, the binding result is listed as “binds”.

The values are drawn from publication PMC5116172.
